Results as given in article PMC7956376.
Results are given in words; binding and its absence hold for the method and conditions named. Some binding calls cover weakened binding; strength is not graded here. Sequences can lack the tags named with a protein.

T1: StSN2 full length fused to pGBKT7 (SN2-BD) (potato (Solanum tuberosum, cultivar Chuanyu 10)) (UniProt Q93X17)
T1 sequence: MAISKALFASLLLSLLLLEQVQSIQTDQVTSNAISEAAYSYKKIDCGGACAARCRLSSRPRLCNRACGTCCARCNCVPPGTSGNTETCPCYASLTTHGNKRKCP

B1: Prx2 fused to pGADT7 (enzyme, UniProt M1AU65 1-322)
chain: MASSKNNTMVFLFLLVTLLIGSSSAQLSTSFYSKSCPKLYQTVKSTVQSAIKKETRMGASLLRLFFHDCFVNGCDGSLLLDDTSSFTGEKRAAPNVNSVRGFEVIDNIKSAVEKACPGVVSCADILAVTARDSVVILGGPNWNVKLGRRDARTASQGAANSSIPAPTFNLNRLISSFSAVGLSTKDMVALSGSHTIGQARCTTFRARIYNETNSIDSSFARTRQNSCPRNSGSGDNNLAPLDLQTPSKFDNNYFKNLVNKKGLLHSDQQLFNGGSADSIVRSYINNPSSFNSDFVTAMIKMGDIRPLTGSNGEIRKNCRRRN
B2: Prx9 fused to pGADT7 (enzyme, UniProt M1A251 1-334)
chain: MALGATHLSLAFCLMALIVLVKADFDGKKEPINNILEQNSEMLTQDFCIFAAVGSVVAEAIARERRMGASLIRLFFHDCFVDGCDAGILLDDIPGRFQGEKTSPPNNNSVRGYQVIDQAKQRIKTMCPGAAVSCADILALAARDSVAMLGGIPYPVSLGRKDARTANFTGALIQLPAPFDDLNVQLKKFSDKGMSAREMVALVGSHTVGFARCVTLCDDRNINPAMKSTLKCGCPVSNNNTNLVPLDLMTPDFFDKFYYEDLIRNQGLLFSDQVLMGSTATANVVRTYNSNPALFLREFNDAMIKMGNLPPSRGVQLEIRNVCSKVNGNSIADM
B3: Prx10 fused to pGADT7 (enzyme, UniProt M1CCJ9 1-359)
chain: MASTTLYTLASSLVLILSIFVSIHFQVTKAQGTQPIVKGLSWTFYDSICPNAESIIRRRLQNVFRQDIGQAAGLLRLHFHDCFVQGCDGSVLLDGSTSGPSEKDAPPNLTLRQQAFRIIEDLRRRVHRDCGRVVSCADITAIAARDSVFFSGGPDYDLPLGRRDGLTFATLNETLANLPPPSFNTSLILASLATKNFTPTDVVALSGGHTIGISHCTSFTERLYPNQDSSMDKTFANNLKITCPTTNSTNTTVLDIRSPNKFDNKYYVDLMNRQGLFTSDQDLYTDRRTRGIVTSFAINESLFFQEFVNSMIKMGQLNVLTGTQGQIRANCSVRNSNNYNLILPSSLGDQEKQGTWSEI

What follows are binders tested against T1, StSN2 full length fused to pGBKT7 (SN2-BD) (potato (Solanum tuberosum, cultivar Chuanyu 10)) (assay: two-hybrid; SN2 full length in pGBKT7 (bait), peroxidases in pGADT7; yeast AH109; selection on SD-Trp-Leu, growth on SD/-Leu-Trp-His, beta-galactosidase activity (X-gal)).
B1 was tested, and the binding was “binds”.
For B2, the binding was “binds”.
For B3, the binding was “binds”.
